Measurements taken from article PMC7862700.
The list shows a part of the results. Construct or isoform of the protein are uncertain.

Target: T1, ETV4 (UniProt P43268)
T1 sequence: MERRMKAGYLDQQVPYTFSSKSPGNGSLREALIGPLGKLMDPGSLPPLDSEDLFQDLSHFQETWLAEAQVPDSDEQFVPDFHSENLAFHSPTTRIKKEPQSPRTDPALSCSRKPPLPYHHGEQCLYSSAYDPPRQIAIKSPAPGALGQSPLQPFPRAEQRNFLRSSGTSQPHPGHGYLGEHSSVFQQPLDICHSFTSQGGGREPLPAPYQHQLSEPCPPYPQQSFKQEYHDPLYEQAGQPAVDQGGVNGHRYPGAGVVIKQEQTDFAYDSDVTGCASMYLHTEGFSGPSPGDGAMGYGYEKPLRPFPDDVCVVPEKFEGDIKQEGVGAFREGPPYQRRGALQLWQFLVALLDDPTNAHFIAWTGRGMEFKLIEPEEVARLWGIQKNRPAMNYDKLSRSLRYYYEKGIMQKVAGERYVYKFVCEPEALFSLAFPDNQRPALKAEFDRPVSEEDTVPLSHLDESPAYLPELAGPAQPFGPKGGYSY
Assay: DAPPL (digital affinity profiling via proximity ligation, sequencing)
Conditions: 10 mM Tris-HCl pH 7.5, 50 mM NaCl, 1 mM DTT, 4% glycerol, room temperature, 30 min; GST-TFs on glutathione beads, 16-mer random dsDNA library, 0.1% …; high values mean tight binding; double strand, one strand shown; scale: fold enrichment (6-mer frequency, TF over GST control)

Sequence | binding signal
AGCTTA | 1.21
ATGGTG | 1.08
CGACAA | 1.17
ACGTTG | 1.05
TGTAAC | 1.3
AGGGCT | 1.02
CATATC | 1.4
CCTCCT | 1.48
TGTCAA | 1.08
GTGACC | 1.17
ACCTTA | 1.21
GGATGT | 1.87
CGAATC | 1.1
ACTGAC | 1.2
CTCACG | 1.33
AATTAT | 1.23
GCTCTA | 1.25
CTTTAC | 1.36
TTATCT | 1.29
CTTGTA | 1.4

Sequence | binding signal
TCCATT | 1.31
ACGACG | 1.19
AACCGG | 1.45
ATACAT | 1.31
CCTGTG | 1.17
TGGTCC | 1.25
TACGCA | 1.26
ATATCC | 2.83
GCCCAC | 1.04
ACATAA | 1.08
TAAATC | 1.15
TGAAAT | 0.936
TGCACA | 1.1
TCACTC | 1.15
CCGACA | 1.21
AACTGG | 1.31
ATGCAG | 1.04
TGGAAT | 1.27
CATTCT | 1.3
ATTCTC | 1.29

Exported with each value named: entries from further up
GCCCAC
  binding signal = 1.04
CCGACA
  binding signal = 1.21
